Data source: PubChem BioAssay AID1259425 (University of Nebraska Medical Center, 2018)
Assay: 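Compare each knockdown with KSR1 silencing using changes in marker transcripts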 (primary screen). Cells: HCT116 human colon cancer cells. Reagents: siRNA pool against human genes, 50 nM siRNA. Detection: 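mRNA of six signature genes measured together by branched-DNA assay after 50 nM siRNA pool, blank removed, divided by geometric mean of two housekeeping genes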. Reading the numbers: BNIP3L mRNA: higher = more BNIP3L transcript after knockdown; NDRG1 mRNA: higher = more NDRG1 transcript after knockdown; BNIP3 mRNA: higher = more BNIP3 transcript after knockdown; ALDOC mRNA: higher = more ALDOC transcript after knockdown; ACSL5 mRNA: higher = more ACSL5 transcript after knockdown.
The whole screen tested about 14,000 reagents; shown is a part drawn at random. Not stated in the record: the time to read-out.

| gene knocked down | BNIP3L mRNA, set 1 | NDRG1 mRNA, set 1 | BNIP3 mRNA, set 1 | ALDOC mRNA, set 1 | ACSL5 mRNA, set 1 |
| --- | --- | --- | --- | --- | --- |
| STRN3 (GeneID 29966) | 0.13 | 0.361 | 0.404 | 0.0264 | 0.149 |
| WNT8A (GeneID 7478) | 0.147 | 0.166 | 0.255 | 0.0222 | 0.346 |
| GLI4 (GeneID 2738) | 0.0911 | 0.237 | 0.325 | 0.00334 | 0.157 |
| CTSK (GeneID 1513) | 0.0669 | 0.174 | 0.377 | 0.0437 | 0.307 |
| H2AC8 (GeneID 3012) | 0.0842 | 0.0851 | 0.526 | 0.0121 | 0.159 |
| HRH1 (GeneID 3269) | 0.0833 | 0.0657 | 0.291 | 0.0267 | 0.123 |
| PART1 (GeneID 25859) | 0.161 | 0.546 | 0.721 | 0.0452 | 0.24 |
| RNF150 (GeneID 57484) | 0.1 | 0.126 | 0.268 | 0.0442 | 0.313 |
| TMEM38B (GeneID 55151) | 0.176 | 0.189 | 0.253 | 0.0314 | 0.16 |
| JUP (GeneID 3728) | 0.0678 | 0.072 | 0.179 | 0.0137 | 0.123 |
| VNN1 (GeneID 8876) | 0.0989 | 0.221 | 0.267 | 0.0378 | 0.0828 |
| SLC39A7 (GeneID 7922) | 0.288 | 0.197 | 0.338 | 0.0526 | 0.127 |
| PROKR1 (GeneID 10887) | 0.242 | 0.148 | 0.382 | 0.0163 | 0.292 |
| AMY2A (GeneID 279) | 0.0616 | 0.127 | 0.281 | 0.00711 | 0.112 |
| RPN1 (GeneID 6184) | 0.216 | 0.359 | 0.495 | 0.0752 | 0.219 |
| TLL1 (GeneID 7092) | 0.0643 | 0.193 | 0.303 | 0.0386 | 0.318 |
| CYLC1 (GeneID 1538) | 0.255 | 0.749 | 0.516 | 0.0525 | 0.453 |
| FLJ10246 (retired record) (GeneID 55104) | 0.169 | 0.177 | 0.294 | 0.0192 | 0.125 |
| FGF13 (GeneID 2258) | 0.103 | 0.0833 | 0.291 | 0.0263 | 0.17 |
| CCNB1IP1 (GeneID 57820) | 0.0828 | 0.257 | 0.487 | 0.0665 | 0.0662 |
| CYP3A7 (GeneID 1551) | 0.091 | 0.192 | 0.284 | 0.0182 | 0.141 |
| ACACB (GeneID 32) | 0.0657 | 0.178 | 0.243 | 0.0153 | 0.197 |
| CTRC (GeneID 11330) | 0.0771 | 0.247 | 0.31 | 0.0107 | 0.0714 |
| MTCL2 (GeneID 140710) | 0.106 | 0.473 | 0.767 | 0.0568 | 0.297 |
| HPGDS (GeneID 27306) | 0.11 | 0.362 | 0.272 | 0.0266 | 0.189 |
| LPCAT1 (GeneID 79888) | 0.216 | 0.228 | 0.376 | 0.0536 | 0.177 |
| NTNG1 (GeneID 22854) | 0.129 | 0.248 | 0.182 | 0.0506 | 0.265 |
| HAO2 (GeneID 51179) | 0.18 | 0.193 | 0.302 | 0.0311 | 0.354 |
| AHCYL2 (GeneID 23382) | 0.0878 | 0.181 | 0.292 | 0.041 | 0.0863 |
| ADAMTS5 (GeneID 11096) | 0.077 | 0.0553 | 0.205 | 0.0238 | 0.0801 |
| CEP83 (GeneID 51134) | 0.0901 | 0.397 | 0.469 | 0.0159 | 0.159 |
| FGF8 (GeneID 2253) | 0.086 | 0.11 | 0.202 | 0.0237 | 0.0894 |
| SYVN1 (GeneID 84447) | 0.104 | 0.209 | 0.278 | 0.0674 | 0.194 |
| GTSE1 (GeneID 51512) | 0.107 | 0.153 | 0.237 | 0.00407 | 0.136 |
| BPIFB2 (GeneID 80341) | 0.188 | 0.316 | 0.45 | 0.0557 | 0.311 |
| FBXW7 (GeneID 55294) | 0.134 | 0.254 | 0.304 | 0.0171 | 0.127 |
| YPEL5 (GeneID 51646) | 0.183 | 0.522 | 0.528 | 0.113 | 0.25 |
| CUTA (GeneID 51596) | 0.137 | 0.395 | 0.302 | 0.0227 | 0.374 |
| PCDH9 (GeneID 5101) | 0.0873 | 0.787 | 0.323 | 0.0264 | 0.106 |
| GPR108 (GeneID 56927) | 0.159 | 0.302 | 0.31 | 0.00105 | 0.434 |
| ATP2A1 (GeneID 487) | 0.0909 | 0.371 | 0.251 | 0.0357 | 0.198 |
| NR4A3 (GeneID 8013) | 0.115 | 0.275 | 0.298 | 0.035 | 0.129 |
| ME1 (GeneID 4199) | 0.0586 | 0.0917 | 0.296 | 0.0164 | 0.133 |
| PBXIP1 (GeneID 57326) | 0.164 | 0.369 | 0.454 | 0.021 | 0.155 |
| ST6GALNAC5 (GeneID 81849) | 0.142 | 0.298 | 0.319 | 0.0508 | 0.294 |
| ZNF711 (GeneID 7552) | 0.201 | 0.434 | 0.337 | 0.049 | 0.46 |
| OLAH (GeneID 55301) | 0.316 | 0.179 | 0.445 | 0.0551 | 0.243 |
| PADI1 (GeneID 29943) | 0.11 | 0.606 | 0.274 | 0.0309 | 0.266 |
| METTL2B (GeneID 55798) | 0.162 | 0.154 | 0.284 | 0.032 | 0.216 |
| IFNLR1 (GeneID 163702) | 0.0822 | 0.219 | 0.18 | 0.0169 | 0.135 |
